According to publication PMC6457190 (MedChemComm, 2019):

Assay: general procedure: Fmoc solid-phase peptide synthesis; HATU (manual SPPS)
Conditions: whole synthesis, overall

Row | Substance | isolated yield [%]
1 | Oct-TriA2(2,8-D-Lys, 7-Lys) | 4
2 | Oct-TriA1 | 11
3 | Oct-TriA1(2,8-D-Orn, 7-Orn) | 6
4 | Oct-TriA1(2-D-Lys, 7-Lys) | 5
5 | Oct-TriA1(2-D-Orn, 7-Orn) | 6
6 | Oct-TriA2(2,8-D-Orn, 7-Orn) | 4
7 | Oct-TriA2 | 5
8 | Oct-TriA1(2,8-D-Lys, 7-Lys) | 6
